Test results as given in PMC3380004.
Results are given in words; binding and its absence hold for the method and conditions named. Binding seen in cells or lysates may run through a third protein. These calls come from enrichment with a bait or labelling near it, and not all partners need be listed. Where a sequence is shown, tags or fusion partners need not be part of it.

Protein sequences, listed by entry. Tags and fused reporters are not part of them.
UniProt Q9EPN1: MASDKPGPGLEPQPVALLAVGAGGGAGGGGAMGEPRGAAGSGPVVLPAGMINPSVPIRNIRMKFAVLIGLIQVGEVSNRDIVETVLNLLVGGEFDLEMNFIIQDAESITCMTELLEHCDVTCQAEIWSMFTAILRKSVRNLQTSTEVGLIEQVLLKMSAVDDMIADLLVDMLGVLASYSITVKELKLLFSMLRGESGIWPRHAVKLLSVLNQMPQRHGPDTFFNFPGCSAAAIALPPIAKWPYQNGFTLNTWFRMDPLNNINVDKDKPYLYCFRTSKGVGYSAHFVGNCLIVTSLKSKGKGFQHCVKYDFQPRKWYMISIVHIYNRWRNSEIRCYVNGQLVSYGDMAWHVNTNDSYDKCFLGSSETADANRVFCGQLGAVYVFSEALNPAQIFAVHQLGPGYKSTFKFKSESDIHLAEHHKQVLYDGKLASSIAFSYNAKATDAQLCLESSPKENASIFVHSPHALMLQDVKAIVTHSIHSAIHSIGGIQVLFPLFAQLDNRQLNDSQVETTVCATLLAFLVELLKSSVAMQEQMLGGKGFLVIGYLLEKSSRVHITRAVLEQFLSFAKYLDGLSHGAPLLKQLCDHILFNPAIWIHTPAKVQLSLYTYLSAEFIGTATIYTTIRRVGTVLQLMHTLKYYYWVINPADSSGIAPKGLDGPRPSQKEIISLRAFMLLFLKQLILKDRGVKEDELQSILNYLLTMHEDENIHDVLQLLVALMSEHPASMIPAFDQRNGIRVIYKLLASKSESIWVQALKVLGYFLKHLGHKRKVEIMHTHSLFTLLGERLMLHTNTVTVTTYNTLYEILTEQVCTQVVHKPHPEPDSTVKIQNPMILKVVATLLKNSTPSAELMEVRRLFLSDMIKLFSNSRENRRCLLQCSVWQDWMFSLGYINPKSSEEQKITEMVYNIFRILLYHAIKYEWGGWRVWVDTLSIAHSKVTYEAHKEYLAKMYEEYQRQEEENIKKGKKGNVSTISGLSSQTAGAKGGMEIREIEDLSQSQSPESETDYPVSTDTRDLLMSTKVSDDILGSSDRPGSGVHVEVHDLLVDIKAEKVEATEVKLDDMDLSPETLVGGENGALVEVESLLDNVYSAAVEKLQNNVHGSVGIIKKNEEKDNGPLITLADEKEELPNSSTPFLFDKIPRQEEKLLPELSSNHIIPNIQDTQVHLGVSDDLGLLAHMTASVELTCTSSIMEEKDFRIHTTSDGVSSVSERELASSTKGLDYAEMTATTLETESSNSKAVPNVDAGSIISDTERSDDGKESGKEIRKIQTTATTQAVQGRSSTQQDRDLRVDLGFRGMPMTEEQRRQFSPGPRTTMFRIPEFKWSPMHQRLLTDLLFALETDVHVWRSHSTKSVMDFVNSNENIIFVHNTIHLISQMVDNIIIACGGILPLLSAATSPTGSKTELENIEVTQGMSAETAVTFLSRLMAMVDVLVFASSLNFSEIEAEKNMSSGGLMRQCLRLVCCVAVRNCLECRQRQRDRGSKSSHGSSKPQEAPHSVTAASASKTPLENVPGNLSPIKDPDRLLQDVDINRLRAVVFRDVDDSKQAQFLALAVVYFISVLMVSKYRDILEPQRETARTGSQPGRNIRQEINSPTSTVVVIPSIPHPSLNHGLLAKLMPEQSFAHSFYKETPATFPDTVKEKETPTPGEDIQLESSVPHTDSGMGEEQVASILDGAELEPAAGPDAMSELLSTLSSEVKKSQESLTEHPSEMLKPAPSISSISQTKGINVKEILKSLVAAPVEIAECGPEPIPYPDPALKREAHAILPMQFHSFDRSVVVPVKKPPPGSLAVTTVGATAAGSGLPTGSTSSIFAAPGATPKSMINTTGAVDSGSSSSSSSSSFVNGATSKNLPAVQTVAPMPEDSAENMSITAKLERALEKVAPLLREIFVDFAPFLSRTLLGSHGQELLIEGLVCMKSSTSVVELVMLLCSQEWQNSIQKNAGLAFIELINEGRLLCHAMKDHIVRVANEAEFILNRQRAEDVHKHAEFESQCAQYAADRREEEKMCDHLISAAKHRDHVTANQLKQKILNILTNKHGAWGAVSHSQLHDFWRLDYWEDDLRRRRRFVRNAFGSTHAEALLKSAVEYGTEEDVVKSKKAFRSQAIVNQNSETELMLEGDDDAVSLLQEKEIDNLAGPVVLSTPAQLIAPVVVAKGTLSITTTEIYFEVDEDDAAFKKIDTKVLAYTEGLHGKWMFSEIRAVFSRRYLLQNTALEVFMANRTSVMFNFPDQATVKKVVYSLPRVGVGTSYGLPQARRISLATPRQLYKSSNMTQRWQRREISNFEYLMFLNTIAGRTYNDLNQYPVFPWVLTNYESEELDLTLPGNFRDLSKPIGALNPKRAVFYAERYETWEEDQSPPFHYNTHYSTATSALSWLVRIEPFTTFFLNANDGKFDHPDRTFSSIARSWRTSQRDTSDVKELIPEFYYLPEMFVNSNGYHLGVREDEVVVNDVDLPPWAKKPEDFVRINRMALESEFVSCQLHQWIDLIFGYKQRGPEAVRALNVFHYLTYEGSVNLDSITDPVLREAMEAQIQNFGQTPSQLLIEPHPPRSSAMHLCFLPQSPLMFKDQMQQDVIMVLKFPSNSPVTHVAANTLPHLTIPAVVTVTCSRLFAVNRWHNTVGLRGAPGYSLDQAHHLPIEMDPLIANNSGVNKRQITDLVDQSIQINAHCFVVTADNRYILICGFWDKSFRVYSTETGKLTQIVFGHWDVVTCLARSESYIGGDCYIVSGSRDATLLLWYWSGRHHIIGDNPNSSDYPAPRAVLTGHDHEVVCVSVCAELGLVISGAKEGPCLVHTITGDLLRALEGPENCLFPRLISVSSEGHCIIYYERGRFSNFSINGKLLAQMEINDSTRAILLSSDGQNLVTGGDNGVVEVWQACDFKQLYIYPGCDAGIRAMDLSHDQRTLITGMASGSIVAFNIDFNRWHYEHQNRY

B1: Heat shock 70 kDa protein 12A (protein, UniProt Q8K0U4 1-675)
chain: MADKEAGGGDAGPRETAPTSTYSSPARSLGDTGITPLSPSHILNDADPVSEQQTFLVVVAIDFGTTSSGYAYSFTKEPECIHVMRRWEGGDPGVSNQKTPTTILLTPERKFHSFGYAARDFYHDLDPSEAKQWLYLEKFKMKLHTTGDLTMDTDLTAANGKKVKALEIFAYALQYFKEQALKELSDQAGSDFENSDVRWVITVPAIWKQPAKQFMREAAYQAGLASPENSEQLIIALEPEAASIYCRKLRLHQMIELSSKAVVNGYSASDTVGAGFAQAKEHVRRNRQSRTFLVENVIGEIWSELEEGDKYVVVDSGGGTVDLTVHQIRLPEGHLKELYKATGGPYGSLGVDYEFEKLLCKIFGEDFIEQFKIKRPAAWVDLMIAFESRKRAAAPDRTNPLNITLPFSFIDYYKKFRGHSVEHALRKSNVDFVKWSSQGMLRMSPDAMNALFKPTIDSIIEHLRDLFQKPEVSTVKFLFLVGGFAEAPLLQQAVQTAFGDKCRIIIPQDVGLTILKGAVLFGLDPAVIKVRRSPLTYGVGVLNRYVEGKHPPEKLLVKDGTRWCTDVFDKFISADQSVALGELVKRSYTPAKPSQLVIIINIYSSEHDNVSFITDPGVKKCGTLRLDLTGSGGTAVPARREIQTIMQFGDTEIKATAVDITTSKSVKVGIDFLNY
B2: Potassium voltage-gated channel subfamily D member 2 (protein, UniProt Q9Z0V2 1-630)
chain: MAAGVAAWLPFARAAAIGWMPVASGPMPAPPRQERKRTQDALIVLNVSGTRFQTWQDTLERYPDTLLGSSERDFFYHPETQQYFFDRDPDIFRHILNFYRTGKLHYPRHECISAYDEELAFFGLIPEIIGDCCYEEYKDRRRENAERLQDDADTDNTGESALPTMTARQRVWRAFENPHTSTMALVFYYVTGFFIAVSVIANVVETVPCGSSPGHIKELPCGERYAVAFFCLDTACVMIFTVEYLLRLAAAPSRYRFVRSVMSIIDVVAILPYYIGLVMTDNEDVSGAFVTLRVFRVFRIFKFSRHSQGLRILGYTLKSCASELGFLLFSLTMAIIIFATVMFYAEKGSSASKFTSIPAAFWYTIVTMTTLGYGDMVPKTIAGKIFGSICSLSGVLVIALPVPVIVSNFSRIYHQNQRADKRRAQKKARLARIRAAKSGSANAYMQSKRNGLLSNQLQSSEDEPAFISKSGSSFETQHHHLLHCLEKTTNHEFVDEQVFEESCMEVATVNRPSSHSPSLSSQQGVTSTCCSRRHKKTFRIPNANVSGSHRGSVQELSTIQIRCVERTPLSNSRSSLNAKMEECVKLNCEQPYVTTAIISIPTPPVTTPEGDDRPESPEYSGGNIVRVSAL
B3: 6-Phosphofructokinase type C (protein, UniProt Q9WUA3 1-784)
chain: MSDLDSSSSSAYPKYLEHLSGDGKAIGVLTSGGDAQGMNAAVRAVVRMGIYTGAKVYFIYEGYQGLVDGGSNIVEAKWDCVSSILQVGGTIIGSARCKAFRSREGRLKAACNLARLGITNLCVIGGDGSLTGANLFRKEWSGLLEELARNGDIDNDTVQKYSYLNVVGMVGSIDNDFCGTDMTIGTDSALHRIIEVVDAIMTTAQSHQRTFVLEVMGRHCGYLALVSALTCGADWVFLPESPPEEDWEENMCLKLSENRARKKRLNIIIVSEGAIDMQNKPITSEKIKELVVKNLGFDTRVTILGHVQRGGTPSAFDRILASRMGVEAVIALLEATPETPACVVSLRGNQAVRLPLMECVQMTQDVQKAMDERRFKEAVKLRGRRFEGNLNTYKRLAIKLPDEKIVKSNCNVAVINVGAPAAGMNAAVRSAVRVGIADGHKMFAIYDGFEGFANGQIKEIGWADVGGWTGQGGSILGTKRTLPGKYLEKIAEQMHSHSINALLIIGGFEAYLGLLELAAAREKHEAFCVPMVMVPATVSNNVPGSDFSIGADTALNTITDTCDRIKQSASGTKRRVFIIETMGGYCGYLANMGALAAGADAAYIFEEPFDIGDLQSNVVHLTEKMKTSIQRGLVLRNESCSVNYTTDFIYQLYSEEGKGVFDCRKNVLGHMQQGGAPSPFDRNFGTKISAKAMEWISAKLKGSQGTGKKFVSDDSICVLGICKRDLLFQPVAELKKVTDFEHRIPKEQWWLKLRPIMKILAKYEASYDMSDSGKLESLQHHEEL
B4: Mitochondrial glutamate carrier 1 (protein, UniProt Q9D6M3 1-323)
chain: MADKQISLPAKLINGGIAGLIGVTCVFPIDLAKTRLQNQQNGQRMYASMSDCLIKTIRSEGYFGMYRGAAVNLTLVTPEKAIKLAANDFFRHQLSKDGQKLTLPKEMLAGCGAGTCQVIVTTPMEMLKIQLQDAGRIAAQRKILAAQAQLSAQGGAQPSVEAPAPPRPTATQLTRDLLRNHGIAGLYKGLGATLLRDVPFSIVYFPLFANLNQLGRPSSEEKSPFYVSFLAGCVAGSAAAVAVNPCDVVKTRLQSLERGVNEDTYSGFLDCARKIWRHEGPSAFLKGAYCRALVIAPLFGIAQVVYFLGIAESLLGLLQEPQA
B5: Sjogren syndrome/scleroderma autoantigen 1 homolog (protein, UniProt P56873 1-199)
chain: MALNGADVDDFTWEPPTEAETKVLQARRERQDRISRLMGDYLLRGYRMLGDTCADCGTILLQDKQRKIYCVACQELDSDVDKDNPALNAQAALSQAREHQLASSTEPASSSRPPSQPPVPRPEHCEGAAAGLKAAQAPPLPAAPPNTDAVASTQTALLQKLTWASVELGSSTSLETSIQLCGLIRACAEALGSLKQLDH
B6: Striatin (protein, UniProt O55106 1-780)
chain: MDEQAGPGVFFSNNHPGAGGAKGLGPLAEAAAAGDGAAAAGAARAQYSLPGILHFLQHEWARFEVERAQWEVERAELQAQIAFLQGERKGQENLKKDLVRRIKMLEYALKQERAKYHKLKYGTELNQGDMKPPSYDSDEGNETEVQPQQNSQLMWKQGRQLLRQYLQEVGYTDTILDVKSKRVRALLGFSSDVTDREDDKNQDSVINGTEAEVKETAMIGKSELTDSASVLDNFKFLESAAADVSDEDEDEDTDGRAKSVIDTSTIVRKKALPDTSEDRDTKEALKEFDFLVTSEEGDNESRSAGDGTDWEKEDQCLTPEAWNVDQGVISKLKEQYKKERKGKKGVKRPNRSKLQDMLANLRDVDELPSLQPSVGSPSRPSSSRLPEQELSRADEVEALTFPPSSGKSFIMGADEALESELGLGELAGLTVANEADSLAYDIANNKDALRKTWNPKFTLRSHFDGIRALAFHPIEPVLITASEDHTLKMWNLQKTAPAKKSTSLDVEPIYTFRAHKGPVLCVVMSSNGEQCYSGGTDGRIQSWSTTNPNVDPYDAYDPSVLRGPLLGHTDAVWGLAYSAAHQRLLSCSADGTLRLWNTTEVAPALSVFNDNQELGIPASVDLVSSDPSHMVASFSKGYTSIFNMETQQRVLTLESNVDSTSSSSCQINRVISHPTLPISITAHEDRHIKFYDNNTGKLIHSMVAHLEAVTSLAVDPNGLYLMSGSHDCSIRLWNLESKTCIQEFTAHRKKFEESIHDVAFHPSKCYIASAGADALAKVFV
B7: Synaptogyrin-1 (protein, UniProt O55100 1-234)
chain: MEGGAYGAGKAGGAFDPYTLVRQPHTILRVVSWVFSIVVFGSIVNEGYLNNPEEEEEFCIYNRNPNACSYGVTVGVLAFLTCLLYLALDVYFPQISSVKDRKKAVLSDIGVSAFWAFFWFVGFCFLANQWQVSKPKDNPLNEGTDAARAAIAFSFFSIFTWAGQAVLAFQRYQIGADSALFSQDYMDPSQDSSMPYAPYVEPSAGSDPAGMGGTYQHPANAFDAEPQGYQSQGY

Target: Neurobeachin (mouse (endogenous in mouse brain)) (UniProt Q9EPN1)
Assay: affinity purification with mass spectrometry; IP with α-Nbea antibody from the P2+microsomes fraction of P84 mouse brain solubilised with 1% n-Dodecyl β-D-maltoside (DDM), protein A/G agarose, 4°C; controls: empty beads, E18 KO IP; LTQ-Orbitrap

binding, binds:
B1
B2
B3
B4
B5
B6
B7
